21 compounds from article PMC12040169 (PLOS Biology, 2025) can be followed below.

The other results are listed elsewhere or left out.

This experiment deals with T1, CTL2-GFP (C. trachomatis L2/434/Bu, GFP-expressing).
T1 construct: L2/434/Bu, GFP-expressing
Also noted: species or system HeLa; Intracellular C. trachomatis growth in HeLa cells, bulk GFP fluorescence relative to DMSO. To be noted: bulk GFP, single well; 28.5 h, 10 µM; inhibitor.
Consider `COc1cc(OC)nc(N2CCN(c3nccnc3NS(=O)(=O)C3CC3)CC2)n1` [CBK048698], for which the “% of control remaining” value came out at 112.435%. Turning to `NS(=O)(=O)c1ccc(NC(=O)c2cc3c(n(-c4ccccc4)c2=O)CCCC3=O)cc1` [CBK266467], the “% of control remaining” value was found to be 143.477%.

`O=C(Nc1ccccc1)N1C[C@@H]2OCC(=O)N(Cc3ccc(F)cc3)[C@@H]2C1` [CBK289683]: the “% of control remaining” value stood at 154.628%. The result for `O=C(NCCc1c[nH]cn1)Nc1cccc(C(F)(F)F)c1` [CBK269822] reads 120.552%; that for `Cc1nccn1CCN(C)C(=O)C1CC2C=CC1C21CC1` (stereo not drawn) [CBK282084], 97.1793%; that for `CCn1c(C(O)c2ccc(OCc3ccccc3)cc2)nc2ccccc21` (stereo not drawn) [CBK263458], 100%.

With `CC(C)c1ccc(C(C)NC(=O)Cn2cc(C(=O)NC3CCCCC3)ccc2=O)cc1` (stereo not drawn) [CBK286097], the “% of control remaining” value came out at 113.543%.

Turning to `COc1ccc(F)cc1-c1ccccc1CC1(C(=O)NCCc2ccccc2)CCOCC1` [CBK286424], the “% of control remaining” value worked out at 82.9107%. Take `Cn1c2ccccc2c2ncn(CCS)c(=O)c21` [CBK288412]: the “% of control remaining” value is 100.386%. Under `Cc1[nH]c(C(=O)NCCc2ccco2)c(C)c1C(=O)OC(C)C` [CBK295180] stands 162.543%. Under `Cc1nnc(S)n1CC(=O)n1c2c(c3ccccc31)CCCC2` [CBK266244] stands 163.124%; under `CN(C)S(=O)(=O)N(CC(=O)Nc1ccc2c(c1)OCO2)c1ccccc1` [CBK268481], 64.2777%.

In the case of `Cc1ccc(C(=O)O)cc1S(=O)(=O)NCCCO` [CBK267171], the “% of control remaining” value was 129.457%. Under `Cc1noc(-c2cn(C)nc2C2CCCCN2C(=O)C2CC2)c1C` (stereo not drawn) [CBK283410] stands 106.074%; under `Cc1ccc(S(=O)(=O)N2CCOCC2)cc1C(=O)O` [CBK262256], 85.7983%; under `O=C(CC1S\C(=N/N=C/C=C/c2ccccc2)N=C1O)Nc1ccc(C(=O)O)cc1` (stereo not drawn) [CBK263711], 110.28%. As to `Cc1occc1-c1nnc(SCC(=O)c2ccc3c(c2)OCCO3)o1` [CBK268773], the “% of control remaining” value is recorded as 133.115%.

Consider `C(=N\c1ccc(Cc2ccc(/N=C/c3ccc[nH]3)cc2)cc1)/c1ccc[nH]1` [CBK261282], for which the “% of control remaining” value came to 96.9913%. Under `Cc1cnccc1-c1c[nH]nc1C1CCCN1C(=O)c1ccccc1` (stereo not drawn) [CBK285499] stands 117.024%; under `O=C(c1cc(F)c(F)cc1F)N1CCC2(CCN(CCN3CCOCC3)C2)C1` (stereo not drawn) [CBK132145C], 164.717%; under `Cc1c[nH]c(CN(C)C(=O)c2cccc(NC(=O)C3CCCC3)c2)n1` [CBK307282], 126.478%.
